Data: US20070071672A1, “Use of metal tricarbonyl complexes as radiotherapeutic chemotoxic agents” (priority 2003, published 2007)
Some entries share one result that the patent states for a list of compounds.

Test system: B16 F1 mouse melanoma cells
Assay: XTT cell proliferation assay, melanoma cells
Details: 200 μM based on Re (lower for poorly soluble complexes), 24 h
Description: In a typical experiment (see FIG. 10) an average of 2000 cells were grown in microtiter plates (tissue culture grade, 96 wells, flat bottom) in a final volume of 100 μL culture medium per well in a humidified-atmosphere (37° C., >6.5% CO2). After 24 h the rhenium complex was added the wells (final concentrations 200 μM based on Re) and the cells were grown for further 24 h under a humidified atmosphere. After the incubation period 50 μL of the XTT labeling mixture were added to each well. The plates were incubated again for 4 h. After the this final incubation period the spectrophotometrical absorbance (optical density OD) of each well was measured at 450 nm.
Control experiments were performed as described above without the addition of the rhenium compounds. Blanks were obtained by adding 50 μL of H2O instead of the XTT labeling mixture. Experiments were done in double and the results represent the average.
The % of cell survival was calculated base on the relative OD of the samples. Maximum control OD was set to 100% cell survival.
The procedure is as described in Example 10 and FIG. 10. Only the cancer cell line varies.

Substance: (Et4N)2[ReBr3(CO)3] [Complex 1]
- cytotoxicity (% of cell survival): inhibit cell proliferation to an extent comparable to cisplatin
